Measurements as given in patent publication EP2582674B1 (Cymabay Therapeutics, Inc., priority 2010, dated 2011).
Some entries share one result that the patent states for a list of compounds.

Target: T1, human GPR120 (Homo sapiens, UniProt Q5NUL3)
T1 construct: host or cells: HEK293 cells co-expressing Gqi5
T1 sequence (Q5NUL3 1-361): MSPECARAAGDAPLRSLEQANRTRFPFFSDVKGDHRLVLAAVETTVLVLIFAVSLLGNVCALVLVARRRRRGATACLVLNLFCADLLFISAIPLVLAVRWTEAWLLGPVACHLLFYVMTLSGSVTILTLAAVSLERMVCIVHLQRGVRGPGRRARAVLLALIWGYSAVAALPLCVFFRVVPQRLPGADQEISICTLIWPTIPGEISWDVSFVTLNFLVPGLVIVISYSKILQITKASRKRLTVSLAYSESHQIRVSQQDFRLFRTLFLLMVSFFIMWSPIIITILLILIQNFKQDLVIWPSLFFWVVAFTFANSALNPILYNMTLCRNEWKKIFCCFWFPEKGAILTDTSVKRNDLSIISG
Assay: Intracellular Ca2+ assay in human GPR120 stable cell line (FLIPR Calcium 4 dye, Flexstation)
Type: cell-based
Conditions: eight concentrations from 0.00001 to 20 µM; changes (Max-Min) of fluorescence intensity

CC(Cc1ccc(OCc2cc(Cl)cc3c2OC(C)(C)C3=O)c(F)c1)C(=O)O (centres unmarked) [Example 77, 3-(4-((5-chloro-2,2-dimethyl-3-oxo-2,3-dihydrobenzofuran-7-yl)methoxy)-3-fluorophenyl)-2-methylpropanoic acid]
EC50: ≤ 1 µM

[2H]C([2H])(C(=O)O)C([2H])([2H])c1ccc(OCc2cc(Cl)cc3c2OC(C)(C)C3)c(F)c1 [Example 241, 3-(4-((5-chloro-2,2-dimethyl-2,3-dihydrobenzofuran-7-yl)methoxy)-3-fluorophenyl)-2,2,3,3-tetradeuteriopropanoic acid]
EC50: ≤ 1 µM

CC1(C)Cc2cc(Cl)cc(COc3c(F)cc(CCCC(=O)O)cc3F)c2O1 [Example 170, 4-(4-((5-chloro-2,2-dimethyl-2,3-dihydrobenzofuran-7-yl)methoxy)-3,5-difluorophenyl)butanoic acid]
EC50: ≤ 1 µM

CCCCc1c(CCC(=O)O)ccc(OCc2cc(F)cc3c2OC(C)(C)C3)c1F [Example 238, 3-(2-butyl-3-fluoro-4-((5-fluoro-2,2-dimethyl-2,3-dihydrobenzofuran-7-yl)methoxy)phenyl)propanoic acid]
EC50: ≤ 1 µM

O=C(O)CC1CCc2cc(OCc3cc(F)cc4c3OC3(CCCC3)C4)ccc21 (centres unmarked) [Example 163, 2-(5-((5-fluoro-3H-spiro[benzofuran-2,1'-cyclopentane]-7-yl)methoxy)-2,3-dihydro-1H-inden-1-yl)acetic acid]
EC50: ≤ 1 µM

COc1cc(OCc2cc(Cl)cc3c2OC2(CCCC2)C3)ccc1CCC(=O)O [Example 194, 3-(4-((5-chloro-3H-spiro[benzofuran-2,1'-cyclopentane]-7-yl)methoxy)-2-methoxyphenyl)propanoic acid]
EC50: ≤ 1 µM

CCCc1cc(OCc2cc(Cl)cc3c2OC(C)(C)C3)ccc1CCC(=O)O [Example 213, 3-(4-((5-chloro-2,2-dimethyl-2,3-dihydrobenzofuran-7-yl)methoxy)-2-propylphenyl)propanoic acid]
EC50: ≤ 1 µM

CCCc1cc(OCc2cc(Cl)cc3c2OC(C)(C)C3)c(F)cc1CCC(=O)O [Example 73, 3-(4-((5-chloro-2,2-dimethyl-2,3-dihydrobenzofuran-7-yl)methoxy)-5-fluoro-2-propylphenyl)propanoic acid]
EC50: ≤ 1 µM

CC(Cc1cc(F)c(OCc2cccc3c2OCC3)c(F)c1)C(=O)O (centres unmarked) [Example 3, 3-(4-((2,3-dihydrobenzofuran-7-yl)methoxy)-3,5-difluorophenyl)-2-methylpropanoic acid]
EC50: ≤ 1 µM

CC(CC(=O)O)Cc1ccc(OCc2cc(F)cc3c2OC(C)(C)C3)cc1 (centres unmarked) [Example 182, 4-(4-((5-fluoro-2,2-dimethyl-2,3-dihydrobenzofuran-7-yl)methoxy)phenyl)-3-methylbutanoic acid]
EC50: ≤ 1 µM

CC1(C)Cc2cc(F)cc(COc3ccc(C4CC4CC(=O)O)cc3)c2O1 (centres unmarked) [Example 199, 2-(2-(4-((5-fluoro-2,2-dimethyl-2,3-dihydrobenzofuran-7-yl)methoxy)phenyl)cyclopropyl)acetic acid]
EC50: ≤ 1 µM

[2H]C([2H])(Oc1ccc(CC(C)C(=O)O)cc1F)c1cc(F)cc2c1OC(C)(C)C2 (centres unmarked) [Example 230, 3-(4-(dideuterio(5-fluoro-2,2-dimethyl-2,3-dihydrobenzofuran-7-yl)methoxy)-3-fluorophenyl)-2-methylpropanoic acid]
EC50: ≤ 1 µM

O=C(O)CCc1ccc(OCc2cc(Cl)cc3c2OC2(CCCC2)C3)cc1 [Example 166, 3-(4-((5-chloro-3H-spiro[benzofuran-2,1'-cyclopentane]-7-yl)methoxy)phenyl)propanoic acid]
EC50: ≤ 1 µM

CC1(C)Cc2cc(Cl)cc(COc3ccc(C4CC4C(=O)O)cc3F)c2O1 (centres unmarked) [Example 181, 2-(4-((5-chloro-2,2-dimethyl-2,3-dihydrobenzofuran-7-yl)methoxy)-3-fluorophenyl)cyclopropanecarboxylic acid]
EC50: ≤ 1 µM

CC1(C)Cc2cc(F)cc(COc3ccc(C(C)(C)CC(=O)O)cc3)c2O1 [Example 157, 3-(4-((5-fluoro-2,2-dimethyl-2,3-dihydrobenzofuran-7-yl)methoxy)phenyl)-3-methylbutanoic acid]
EC50: ≤ 1 µM

CCc1cc(OCc2cccc3c2CC(C)(C)O3)ccc1CCC(=O)O [Example 140, 3-(4-((2,2-dimethyl-2,3-dihydrobenzofuran-4-yl)methoxy)-2-ethylphenyl)propanoic acid]
EC50: ≤ 1 µM

CC1(C)Cc2cc(Cl)cc(COc3c(F)cc(CC4CC4C(=O)O)cc3F)c2O1 (centres unmarked) [Example 185, 2-(4-((5-chloro-2,2-dimethyl-2,3-dihydrobenzofuran-7-yl)methoxy)-3,5-difluorobenzyl)cyclopropanecarboxylic acid]
EC50: ≤ 1 µM

CCc1c(CCC(=O)O)ccc(OCc2cc(F)cc3c2OC(C)(C)C3)c1F [Example 216, 3-(2-ethyl-3-fluoro-4-((5-fluoro-2,2-dimethyl-2,3-dihydrobenzofuran-7-yl)methoxy)phenyl)propanoic acid]
EC50: ≤ 1 µM

[2H]C([2H])(Oc1ccc(CCC(=O)O)c(CCC)c1F)c1cc(Cl)cc2c1OC(C)(C)C2 [Example 235, 3-(4-(dideuterio(5-chloro-2,2-dimethyl-2,3-dihydrobenzofuran-7-yl)methoxy)-3-fluoro-2-propylphenyl)propanoic acid]
EC50: ≤ 1 µM

CC1(C)Cc2cc(Cl)cc(COc3ccc(CCC(=O)O)c(OC(F)(F)F)c3)c2O1 [Example 139, 3-(4-((5-chloro-2,2-dimethyl-2,3-dihydrobenzofuran-7-yl)methoxy)-2-(trifluoromethoxy)phenyl)propanoic acid]
EC50: ≤ 1 µM

CC1(C)Cc2cc(F)cc(CNc3ccc(CCC(=O)O)cc3)c2O1 [Example 128, 3-(4-(((5-fluoro-2,2-dimethyl-2,3-dihydrobenzofuran-7-yl)methyl)amino)phenyl) propanoic acid]
EC50: ≤ 1 µM

O=C(O)CC1CC1c1ccc(OCc2cc(Cl)cc3c2OC2(CCCC2)C3)cc1 (centres unmarked) [Example 202, 2-(2-(4-((5-chloro-3H-spiro[benzofuran-2,1'-cyclopentane]-7-yl)methoxy)phenyl)cyclopropyl)acetic acid]
EC50: ≤ 1 µM

Cc1cc(OCc2cc(F)cc3c2OC(C)(C)C3)cc(C)c1CCC(=O)O [Example 204, 3-(4-((5-fluoro-2,2-dimethyl-2,3-dihydrobenzofuran-7-yl)methoxy)-2,6-dimethylphenyl)propanoic acid]
EC50: ≤ 1 µM

CCCc1cc(OCc2cc(F)cc3c2OC(C)(C)C3)c(F)cc1CCC(=O)O [Example 74, 3-(5-fluoro-4-((5-fluoro-2,2-dimethyl-2,3-dihydrobenzofuran-7-yl)methoxy)-2-propylphenyl)propanoic acid]
EC50: ≤ 1 µM

CCc1cc(OCc2cc(F)cc3c2OC(C)(C)C3)c(F)cc1CCC(=O)O [Example 220, 3-(2-ethyl-5-fluoro-4-((5-fluoro-2,2-dimethyl-2,3-dihydrobenzofuran-7-yl)methoxy)phenyl)propanoic acid]
EC50: ≤ 1 µM

CCCCCc1c(CCC(=O)O)ccc(OCc2cc(F)cc3c2OC(C)(C)C3)c1F [Example 224, 3-(3-fluoro-4-((5-fluoro-2,2-dimethyl-2,3-dihydrobenzofuran-7-yl)methoxy)-2-pentylphenyl)propanoic acid]
EC50: ≤ 1 µM

CC1(C)Cc2cc(Cl)cc(COc3ccc4c(c3)CC[C@@H]4CC(=O)O)c2O1 [Example 179, (R)-2-(5-((5-chloro-2,2-dimethyl-2,3-dihydrobenzofuran-7-yl)methoxy)-2,3-dihydro-1H-inden-1-yl)acetic acid]
EC50: ≤ 1 µM

CCc1cc(OCc2cc(Cl)cc3c2OC(C)(C)C3)ccc1CCC(=O)O [Example 138, 3-(4-((5-chloro-2,2-dimethyl-2,3-dihydrobenzofuran-7-yl)methoxy)-2-ethylphenyl) propanoic acid]
EC50: ≤ 1 µM

[2H]C([2H])(Oc1ccc(CCC(=O)O)c(CC)c1F)c1cc(Cl)cc2c1OC(C)(C)C2 [Example 234, 3-(4-(dideuterio(5-chloro-2,2-dimethyl-2,3-dihydrobenzofuran-7-yl)methoxy)-3-fluoro-2-ethylphenyl)propanoic acid]
EC50: ≤ 1 µM

CC(Cc1cc(F)c(OCc2cc(Cl)cc3c2OC(C)C3(C)C)c(F)c1)C(=O)O (centres unmarked) [Example 109, 3-(4-((5-chloro-2,3,3-trimethyl-2,3-dihydrobenzofuran-7-yl)methoxy)-3,5-difluorophenyl)-2-methylpropanoic acid]
EC50: ≤ 1 µM

CC(Cc1ccc(OCc2cc(F)cc3c2OC(C)(C)C3)c(F)c1)C(=O)O (centres unmarked) [Example 8, 3-(3-fluoro-4-((5-fluoro-2,2-dimethyl-2,3-dihydrobenzofuran-7-yl)methoxy)phenyl)-2-methylpropanoic acid]
EC50: ≤ 1 µM

CC(Cc1cc(Cl)c(OCc2cc(Cl)cc3c2OC(C)(C)C3)c(Cl)c1)C(=O)O (centres unmarked) [Example 14, 3-(3,5-dichloro-4-((5-chloro-2,2-dimethyl-2,3-dihydrobenzofuran-7-yl)methoxy)phenyl)-2-methylpropanoic acid]
EC50: ≤ 1 µM

CC1(C)Cc2c(F)ccc(COc3c(F)cc(C4CC4C(=O)O)cc3F)c2O1 (centres unmarked) [Example 27, 2-(3,5-difluoro-4-((4-fluoro-2,2-dimethyl-2,3-dihydrobenzofuran-7-yl)methoxy)phenyl)cyclopropanecarboxylic acid]
EC50: ≤ 1 µM

CC(Cc1cc(F)c(OCc2cccc3c2CC(C)(C)O3)c(F)c1)C(=O)O (centres unmarked) [Example 21, 3-(4-((2,2-dimethyl-2,3-dihydrobenzofuran-4-yl)methoxy)-3,5-difluorophenyl)-2-methylpropanoic acid]
EC50: ≤ 1 µM

CC(CC(=O)O)c1cc(F)c(OCc2cc(Cl)cc3c2OC(C)(C)C3)c(F)c1 (centres unmarked) [Example 106, 3-(4-((5-chloro-2,2-dimethyl-2,3-dihydrobenzofuran-7-yl)methoxy)-3,5-difluorophenyl)butanoic acid]
EC50: ≤ 1 µM
